According to US20040077845A1, “Modifier” (priority 2001, published 2004):
Some compounds share one wording; it may come from a single statement.

tested on: proteins; assay: introduction of galactose residues into proteins by separated oligosaccharides (similar treatments); format: biochemical; conditions: similar treatments as Example 2

Compound | introduction of galactose residues into proteins
agarooctaose | galactose residues were introduced into proteins
O=CC(O)[C@H]1OC[C@@H](O)C1O[C@@H]1O[C@H](CO)[C@H](O)[C@H](O)[C@H]1O (some centres unmarked) [carrabiose] | galactose residues were introduced into proteins
carratetraose | galactose residues were introduced into proteins
carraoctaose | galactose residues were introduced into proteins
carrapentaose | galactose residues were introduced into proteins
OC[C@H]1O[C@@H](O[C@H]2[C@H]3OC[C@@H]2OC(O)[C@H]3O)[C@H](O)[C@@H](O)[C@H]1O (mixture of isomers) [agarobiose] | galactose residues were introduced into proteins
OC[C@H]1O[C@@H](O[C@H]2[C@H]3OC[C@@H]2O[C@@H](O[C@H]2[C@@H](O)[C@@H](CO)O[C@@H](O[C@H]4[C@H]5OC[C@@H]4OC(O)[C@H]5O)[C@@H]2O)[C@H]3O)[C@H](O)[C@@H](O)[C@H]1O (some centres unmarked) [agarotetraose] | galactose residues were introduced into proteins
agaropentaose | galactose residues were introduced into proteins
